In PubChem BioAssay AID1347426 (Functional Genomics Laboratory (NCATS/FGL), 2020):
Among all 31,000 sequences or so, about 1,400 (4.5%) were called active.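 Rule for the calls: active = median seed-adjusted z-score above 1 or below -1; inactive = the rest.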 The list shows a part of the results.

Experiment: Novel Modifiers of Survival Motor Neuron (SMN) Protein: Gene Identification via Genome-wide siRNA Screen;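 note: luminescence tracks full-length SMN protein made from the SMN2 reporter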
Settings: HEK293T SMN2-luciferase reporter, siRNA knockdown, 72 h; actives lie on both sides
Source text: Spinal muscular atrophy (SMA) is the most common neuromuscular autosomal recessive disorder and one of the leading genetic causes of infant death. SMA results from mutations inducing loss of function or deletion in the survival of motor neuron-1 gene (SMN1), leading to deficiency of the survival motor neuron (SMN) protein. Although a second nearly identical gene, SMN2, is retained in humans, its expression primarily produces an aberrantly spliced isoform that is largely unstable and quickly degraded. We performed a genome-wide RNAi screen using a cell-based reporter assay to identify genes and pathways that modulate SMN protein stability. The screen identified over 200 genes that led to the greatest increase or decrease in luciferase expression.
Using HEK293T cells stably expressing a luciferase reporter that combines the promoter and splicing based cassettes in tandem with the major portion of the native SMN2 cDNA with luciferase, we performed a genome-wide RNAi screen to identify modulators of SMN protein levels. Luciferase is expressed when full-length SMN protein is generated with luminescence signal proportional to SMN protein levels. Our luciferase-based reporter assay was used to screen Ambion Silencer Select Human Druggable Genome siRNA library (10418 genes, 3 unique siRNAs per gene) using lipid-based reverse transfection.
Briefly, 1 pmol of each siRNA was spotted to a well of a 384-well plate (Corning, Corning, NY) and 20 microL of serum-free DMEM containing […] of Lipofectamine RNAiMax (Life Technologies, Carlsbad, CA) was then added to each well. Transfected cells were maintained at 37 degrees C in 5% CO2 for 72 hours, 20 microL of ONE-Glo Reagent (Promega) was added to wells for luciferase quantification. Raw luminescence reads were normalized to Ambion(R) Silencer(R) Negative Control #2 siRNA, then log10 transformed. A robust statistical measure of median absolute deviation (MAD) to standardize siRNA activities from each screen. Common Seed Analysis was used to help prioritize clean hits as opposed to those appearing to arise from seed based off-target effects. Candidate modulators were defined as the genes having a MAD score greater than 1.0 or less than -1.0.

| Sequence | median seed-adjusted z-score |
| --- | --- |
| GAAAGUUCAUAAUCGUGAUTT against ZFP28 | inactive: 0.275 |
| GAAUUGGGUCGAUCUGUGATT against DNAJC1 | inactive: 0.134 |
| CCACUUACUUCUUACACUUTT against XRCC2 | inactive: 0 |
| GGAGAUUUUGAGUCCUACATT against CAMK2A | inactive: 0.396 |
| CCGUGGACCUGAUCAUCAATT against FASN | inactive: 0.282 |
| GAGCCGUACUAUGACCUGATT against SSTR2 | inactive: -0.162 |
| GCCGCAUCCAUUACACUGATT against CACNA1E | inactive: 0.285 |
| CUUUUACAGCUGACGGAAATT against GZMA | inactive: -0.234 |
| GGGUCAACCUCUUUACGGATT against EIF3B | inactive: -0.71 |
| GAUCUACUCGGAUACCUUATT against INPP5A | inactive: -0.00941 |
| CGAACUCUACCAAGCCUAUTT against EMILIN2 | inactive: 0.726 |
| AGCACAACUUGUUGAGAUATT against SAP30 | inactive: -0.618 |
| GAGUCAAACCAUGGAAUUATT against GYG1 | inactive: 0.119 |
| GCGAAUUGAUGACAUCGUUTT against CCT3 | inactive: -0.416 |
| CCUUGUCUGAACUUCCCAATT against ZNF444 | inactive: -0.218 |
| CCAUGAUCCCUGAUGCAGATT against HARS | inactive: -0.722 |
| GGAUUUUGGAAUCCAAUGATT against ADAM18 | inactive: -0.913 |
| GUAUUUCAACAGAAAUGAUTT against CENTA1 | inactive: -0.555 |
| CCGCCCUUCUGACAACUCUTT against NCR2 | inactive: -0.0526 |
| AGUUCAUGCAAGAUCCAAUTT against BAT1 | active: -1.49 |
| CCAUCGAUAUUCAGACAGATT against CA14 | inactive: -0.308 |
| CGAGUAGACAAGAUUUUCATT against VSNL1 | inactive: 0.0569 |

| Sequence | median seed-adjusted z-score |
| --- | --- |
| CCAUGACAACUUUCACUGATT against AGFG2 | inactive: -0.289 |
| GGACGUAGGAGGACUGUCATT against SYT5 | inactive: 0.704 |
| GAGUUCCUCUGGUCACUAUTT against TTC18 | active: -1.15 |
| GUAUAUCCGUGUAUCCUAUTT against TRPM1 | inactive: -0.527 |
| GGCAAGCUGUUUCGACCAATT against NCF2 | inactive: -0.201 |
| CCGGCACCAUUCUACCCAATT against ELA2B | inactive: -0.154 |
| CAAUCGGCCUUUUACCAAUTT against KIF22 | inactive: 0.283 |
| CCAACAGACAGGAACCUAUTT against PYCRL | inactive: 0.498 |
| GCAUGCCUGUGUGACAUCATT against NGFR | inactive: -0.0846 |
| GGAUUACGCACAAACGGCATT against SLC16A12 | inactive: 0.0219 |
| CAAUAGAGGUUAUGCGUUUTT against SYNCRIP | inactive: -0.192 |
| GUAUAACCAGAGACUCUUUTT against ARHGAP4 | inactive: 0.784 |
| ACUGCUAAGUUAUCCACUATT against UBE2E3 | inactive: -0.0585 |
| GUACGUUGUAUGUUAAACATT against SLC12A2 | inactive: -0.4 |
| CUUCCAAUCUGGAUUCAAUTT against IL6 | inactive: -0.436 |
| GGAGGAAACUUCAACUUGUTT against PHF20L1 | inactive: 0 |
| GAAGAGUUGUCGUCUAUAATT against TRIB2 | inactive: 0 |
| CGAGACUCAUCUACCUGAATT against LRRC32 | inactive: 0.0464 |
| GGAAAAAGAUCAUAAUAGUTT against SLU7 | inactive: -0.97 |
| GGAUAGUUUUGUAAAAUCUTT against NFIB | inactive: 0.1 |
| GCCUAGACAUCAUCACCAATT against TRIT1 | inactive: 0.794 |
| GUAUUGGAAUUACUAUUGATT against ELP3 | inactive: 0.321 |

| Sequence | median seed-adjusted z-score |
| --- | --- |
| GCCUAUUCAACAACGGAUATT against PDE5A | inactive: 0 |
| UAAUGUCCUGGUUCAGAAATT against SFXN5 | inactive: 0 |
| CCAACCGAAUGAUUGCAGATT against KIF6 | inactive: -0.0396 |
| GAUUAGAUUGGGUAAAGGATT against APEX1 | inactive: -0.312 |
| GCAAUAACCGUCUAAUAAATT against PHGDH | inactive: 0.108 |
| CCCUCGUCAUCAUCAGCAUTT against CLDN4 | inactive: -0.0241 |
| GAGUCUAGAUCUUCAGAUATT against ZNF280D | inactive: 0.374 |
| AAUUCGUUUUGACCACAUATT against XBP1 | inactive: 0.387 |
| CAGUGCAUCUAGUGGAUUATT against GABRR3 | inactive: 0.368 |
| CUUCCCAGGUGGAGCCAAATT against UNQ2541 | inactive: -0.954 |
| GCGUUGGAGUGCUACAACATT against PRKDC | inactive: -0.485 |
| GCGUAGCUCAAGGAUCAAATT against MAP3K1 | inactive: -0.217 |
| AGAUCCUGCAGGUCAAGUATT against CACNA2D2 | inactive: -0.702 |
| AGACCAAAGUCCAUCGGAATT against SYT2 | inactive: 0.243 |
| CCGCGGAUAUUGACAGCUATT against MYH7B | inactive: -0.0322 |
| GCAAAUCAUGAUUGACAUATT against IFNGR1 | inactive: -0.279 |
| GGUUCAAUCAACUUAGAAATT against MS4A12 | inactive: -0.881 |
| UAUCAAUUCCGACAUCGAATT against WNT5A | inactive: 0.651 |
| GGUGGAUGCUCAAUCCAGATT against FOXO1 | inactive: 0.0591 |
| UGAUGAACUCGGAAAUGCATT against PPAPDC1A | inactive: 0.634 |
| CUAUGGUCUCUACCGAAAATT against HDAC1 | inactive: -0.61 |
| GGUUAUCAAUGACGAGCAATT against EP400 | active: 1.83 |

Not a retest: an excerpt of the list.

| Sequence | median seed-adjusted z-score |
| --- | --- |
| GAGUCAAACCAUGGAAUUATT against GYG1 | inactive: 0.119 |
| GCGAAUUGAUGACAUCGUUTT against CCT3 | inactive: -0.416 |
| CCUUGUCUGAACUUCCCAATT against ZNF444 | inactive: -0.218 |
| CCAUGAUCCCUGAUGCAGATT against HARS | inactive: -0.722 |
| GGAUUUUGGAAUCCAAUGATT against ADAM18 | inactive: -0.913 |
| GUAUUUCAACAGAAAUGAUTT against CENTA1 | inactive: -0.555 |
| CCGCCCUUCUGACAACUCUTT against NCR2 | inactive: -0.0526 |
| AGUUCAUGCAAGAUCCAAUTT against BAT1 | active: -1.49 |
| CCAUCGAUAUUCAGACAGATT against CA14 | inactive: -0.308 |
| CGAGUAGACAAGAUUUUCATT against VSNL1 | inactive: 0.0569 |
| CCAUGACAACUUUCACUGATT against AGFG2 | inactive: -0.289 |
| GGACGUAGGAGGACUGUCATT against SYT5 | inactive: 0.704 |
| GAGUUCCUCUGGUCACUAUTT against TTC18 | active: -1.15 |
| GUAUAUCCGUGUAUCCUAUTT against TRPM1 | inactive: -0.527 |
| GGCAAGCUGUUUCGACCAATT against NCF2 | inactive: -0.201 |
| CCGGCACCAUUCUACCCAATT against ELA2B | inactive: -0.154 |
| CAAUCGGCCUUUUACCAAUTT against KIF22 | inactive: 0.283 |
| CCAACAGACAGGAACCUAUTT against PYCRL | inactive: 0.498 |
| GCAUGCCUGUGUGACAUCATT against NGFR | inactive: -0.0846 |
| GGAUUACGCACAAACGGCATT against SLC16A12 | inactive: 0.0219 |
| CAAUAGAGGUUAUGCGUUUTT against SYNCRIP | inactive: -0.192 |
| GUAUAACCAGAGACUCUUUTT against ARHGAP4 | inactive: 0.784 |
| ACUGCUAAGUUAUCCACUATT against UBE2E3 | inactive: -0.0585 |
| GUACGUUGUAUGUUAAACATT against SLC12A2 | inactive: -0.4 |
| CUUCCAAUCUGGAUUCAAUTT against IL6 | inactive: -0.436 |
| GGAGGAAACUUCAACUUGUTT against PHF20L1 | inactive: 0 |
| GAAGAGUUGUCGUCUAUAATT against TRIB2 | inactive: 0 |
| CGAGACUCAUCUACCUGAATT against LRRC32 | inactive: 0.0464 |
| GGAAAAAGAUCAUAAUAGUTT against SLU7 | inactive: -0.97 |
| GGAUAGUUUUGUAAAAUCUTT against NFIB | inactive: 0.1 |
| GCCUAGACAUCAUCACCAATT against TRIT1 | inactive: 0.794 |

Continuation.

| Sequence | median seed-adjusted z-score |
| --- | --- |
| GGCUACAUCUAGAAGGCAATT against LRG1 | inactive: 0.668 |
| GCUUUUGAAAUGACAUUAATT against ECHS1 | inactive: 0.0273 |
| GGAGUCAUAAUGAACAUAATT against SLC13A5 | inactive: 0 |
| GGAUCUUCGUAGACUAAAATT against ANKIB1 | inactive: -0.00367 |
| GCAUCCUAGACAUUGACAATT against TIMM44 | inactive: -0.569 |
| CACCUGCACCUGUUUAGAATT against F10 | inactive: -0.0033 |
| CAUAUGCGAUGGUGACCUATT against RFC1 | inactive: 0 |
| UCUUAGCUGUGAGAGAUAATT against PLUNC | inactive: 0.254 |
| GACCUAUAGAAGAUGCUAATT against C3orf64 | inactive: 0.0771 |
| CCGUAUGAAUGUAACGUAUTT against ZNF658 | inactive: 0.091 |
| GCAUGAGAGAUGCUUUGGATT against KRT35 | inactive: -0.1 |
| GAAUCAGAAUUGUACCUGATT against KRT38 | inactive: 0.0884 |
| AGUUGUUGGAAUGACCUUATT against CLEC5A | active: -1.07 |
| CGCUUUGCCUACACGAAUATT against EBI2 | inactive: -0.312 |
| GAAUCAGCUCGAUUUCCUUTT against GP5 | inactive: -0.286 |
| UUCCCAUAUUUAUUCGGACTT against AMH | inactive: -0.255 |
| GAGAGAUAUUGAUCGACUUTT against ARG2 | inactive: -0.796 |
| CAAAGGAAUUUUGAAGUCATT against LY9 | inactive: 0.228 |
| GAACGAAUUUGUAUCUCUUTT against STAU1 | inactive: -0.143 |
| CGAAGGAGAUGGUUGGUCATT against RARRES3 | inactive: -0.033 |
| GCGCUUCUGGUGUACGACATT against RAB17 | inactive: 0.473 |
| GCCCGGACUGAAAAACUUATT against OBFC2A | inactive: 0.406 |

| Sequence | median seed-adjusted z-score |
| --- | --- |
| CCAACUACCCUAACAUCUUTT against CNGA2 | inactive: -0.0447 |
| GGUCAAUAGCAACUUAGUATT against EPHA6 | inactive: 0.0445 |
| CAACAGAUGCGGAAUCGGATT against NAP1L4 | inactive: -0.244 |
| CACUAUUCGUUAUGAUUUUTT against EAF1 | inactive: -0.931 |
| AACUGGGAAUUGAGAGGUATT against SOX12 | inactive: 0.478 |
| AAGUUUACGUGAACAAAUUTT against POU3F2 | inactive: -0.179 |
| GGAUGUUCUAUGACGGGAATT against ADAM22 | inactive: 0.292 |
| CCGUGGUAACUAUCGUAUATT against TRIM32 | inactive: 0.109 |
| GAAAAACGGUGACCGUCAATT against MYO9B | inactive: -0.0287 |
| CGACUGUCUUUAAUCUCUATT against HADHB | inactive: -0.188 |
| CAGAAAGGAUUGAAUGUGATT against TBXA2R | inactive: 0 |
| CAGAUGAGGCUAAUACUUATT against ITLN1 | inactive: 0.23 |
| GGAAGCUUCUGUCAUGAAATT against INSRR | inactive: 0.13 |
| CGGUGUCCAUGAACAGAGATT against ERAL1 | inactive: -0.46 |
| CUACCUUACUAGCCCAUAUTT against EPS15 | inactive: -0.478 |
| GUGUCUGGAUGAUCUUUGUTT against OPN1MW | inactive: -0.369 |
| GGAUUACAGUGUCCAAAGATT against ADRA1A | active: -1.06 |
| GACAAACCUUUUGAGCUAATT against PCDHB15 | inactive: 0.0154 |
| GCCUGAUGCUUUUUGGACATT against USP11 | inactive: -0.0327 |
